Earlier results on one compound are cited in paper PMC8222394 (Nature Communications, 2021).

The term pIC50 denotes −log10 of the IC50, conventionally taken in molar units.

In this data set the test system is c-Kit. The following applies: read-out: IC50 c-Kit; Porcine aorta endothelial cells; ref selleckchem.com; cited from earlier work.

Molecules are shown by their SMILES. pIC50: −log10 of the molar value.

For `CNC(=O)c1ccccc1Sc1ccc2c(/C=C/c3ccccn3)n[nH]c2c1` [Axitinib], the negative logarithm of the IC50 (pIC50) was 8.77.
